Experimental data: paper PMC3157352
These are yes or no findings as the source states them, for the method shown. Some entries that bind do so weakly or less than the wild type. Where a sequence is shown, tags or fusion partners need not be part of it.

Chains of the proteins cited; added tags and fusions are not shown.
UniProt Q9NS91: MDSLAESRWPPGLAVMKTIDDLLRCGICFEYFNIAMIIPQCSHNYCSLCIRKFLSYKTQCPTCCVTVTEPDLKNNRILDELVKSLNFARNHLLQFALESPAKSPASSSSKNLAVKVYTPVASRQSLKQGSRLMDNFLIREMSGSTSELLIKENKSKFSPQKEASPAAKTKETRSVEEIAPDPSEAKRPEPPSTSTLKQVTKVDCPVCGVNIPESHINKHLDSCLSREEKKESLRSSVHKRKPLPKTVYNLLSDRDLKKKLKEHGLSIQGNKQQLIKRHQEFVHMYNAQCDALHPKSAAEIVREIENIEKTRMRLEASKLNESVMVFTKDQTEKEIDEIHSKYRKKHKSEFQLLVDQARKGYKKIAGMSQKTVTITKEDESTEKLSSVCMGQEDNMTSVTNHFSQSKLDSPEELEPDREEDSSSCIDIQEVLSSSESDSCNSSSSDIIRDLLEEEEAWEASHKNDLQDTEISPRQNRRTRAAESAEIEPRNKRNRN

T1: human HUS1, yeast two-hybrid fusion (human) (UniProt O60921)
T1 sequence: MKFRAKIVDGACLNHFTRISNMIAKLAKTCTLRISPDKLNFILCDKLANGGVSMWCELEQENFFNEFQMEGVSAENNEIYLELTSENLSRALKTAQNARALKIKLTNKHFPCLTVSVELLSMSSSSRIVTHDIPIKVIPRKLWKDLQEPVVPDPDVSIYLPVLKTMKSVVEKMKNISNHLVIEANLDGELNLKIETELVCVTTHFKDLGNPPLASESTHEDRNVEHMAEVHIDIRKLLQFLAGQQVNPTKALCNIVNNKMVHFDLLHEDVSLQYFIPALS

B1: human RAD1, yeast two-hybrid fusion (protein, UniProt O60671 1-282)
chain: MPLLTQQIQDEDDQYSLVASLDNVRNLSTILKAIHFREHATCFATKNGIKVTVENAKCVQANAFIQAGIFQEFKVQEESVTFRINLTVLLDCLSIFGSSPMPGTLTALRMCYQGYGYPLMLFLEEGGVVTVCKINTQEPEETLDFDFCSTNVINKIILQSEGLREAFSELDMTSEVLQITMSPDKPYFRLSTFGNAGSSHLDYPKDSDLMEAFHCNQTQVNRYKISLLKPSTKALVLSCKVSIRTDNRGFLSLQYMIRNEDGQICFVEYYCCPDEEVPESES
B2: human HUS1, yeast two-hybrid fusion (protein, UniProt O60921 1-280)
chain: T1 sequence

Tests used:
[1] = target: T1, human HUS1, yeast two-hybrid fusion (human); assay: two-hybrid; S. cerevisiae AH109, pGADT7 (Gal4 activation domain) and pGBKT7 (Gal4 binding domain) fusions; spot assay on SD-L-W-H and SD-L-W-H-A; RAD18 against the 9-1-1 components also with DNA damage (50 Gy IR, HU, MMS, CPT)
[2] = target: human RAD18, yeast two-hybrid fusion (human) (UniProt Q9NS91); assay: as above

Row | Binder | binding [1] | binding [2]
1 | B1 | binds | no binding
2 | B2 |  | no binding
